These are yes or no findings as the source states them, for the method shown. Some binding calls cover weakened binding; strength is not graded here.

Chains of the proteins cited; added tags and fusions are not shown.
UniProt P25054: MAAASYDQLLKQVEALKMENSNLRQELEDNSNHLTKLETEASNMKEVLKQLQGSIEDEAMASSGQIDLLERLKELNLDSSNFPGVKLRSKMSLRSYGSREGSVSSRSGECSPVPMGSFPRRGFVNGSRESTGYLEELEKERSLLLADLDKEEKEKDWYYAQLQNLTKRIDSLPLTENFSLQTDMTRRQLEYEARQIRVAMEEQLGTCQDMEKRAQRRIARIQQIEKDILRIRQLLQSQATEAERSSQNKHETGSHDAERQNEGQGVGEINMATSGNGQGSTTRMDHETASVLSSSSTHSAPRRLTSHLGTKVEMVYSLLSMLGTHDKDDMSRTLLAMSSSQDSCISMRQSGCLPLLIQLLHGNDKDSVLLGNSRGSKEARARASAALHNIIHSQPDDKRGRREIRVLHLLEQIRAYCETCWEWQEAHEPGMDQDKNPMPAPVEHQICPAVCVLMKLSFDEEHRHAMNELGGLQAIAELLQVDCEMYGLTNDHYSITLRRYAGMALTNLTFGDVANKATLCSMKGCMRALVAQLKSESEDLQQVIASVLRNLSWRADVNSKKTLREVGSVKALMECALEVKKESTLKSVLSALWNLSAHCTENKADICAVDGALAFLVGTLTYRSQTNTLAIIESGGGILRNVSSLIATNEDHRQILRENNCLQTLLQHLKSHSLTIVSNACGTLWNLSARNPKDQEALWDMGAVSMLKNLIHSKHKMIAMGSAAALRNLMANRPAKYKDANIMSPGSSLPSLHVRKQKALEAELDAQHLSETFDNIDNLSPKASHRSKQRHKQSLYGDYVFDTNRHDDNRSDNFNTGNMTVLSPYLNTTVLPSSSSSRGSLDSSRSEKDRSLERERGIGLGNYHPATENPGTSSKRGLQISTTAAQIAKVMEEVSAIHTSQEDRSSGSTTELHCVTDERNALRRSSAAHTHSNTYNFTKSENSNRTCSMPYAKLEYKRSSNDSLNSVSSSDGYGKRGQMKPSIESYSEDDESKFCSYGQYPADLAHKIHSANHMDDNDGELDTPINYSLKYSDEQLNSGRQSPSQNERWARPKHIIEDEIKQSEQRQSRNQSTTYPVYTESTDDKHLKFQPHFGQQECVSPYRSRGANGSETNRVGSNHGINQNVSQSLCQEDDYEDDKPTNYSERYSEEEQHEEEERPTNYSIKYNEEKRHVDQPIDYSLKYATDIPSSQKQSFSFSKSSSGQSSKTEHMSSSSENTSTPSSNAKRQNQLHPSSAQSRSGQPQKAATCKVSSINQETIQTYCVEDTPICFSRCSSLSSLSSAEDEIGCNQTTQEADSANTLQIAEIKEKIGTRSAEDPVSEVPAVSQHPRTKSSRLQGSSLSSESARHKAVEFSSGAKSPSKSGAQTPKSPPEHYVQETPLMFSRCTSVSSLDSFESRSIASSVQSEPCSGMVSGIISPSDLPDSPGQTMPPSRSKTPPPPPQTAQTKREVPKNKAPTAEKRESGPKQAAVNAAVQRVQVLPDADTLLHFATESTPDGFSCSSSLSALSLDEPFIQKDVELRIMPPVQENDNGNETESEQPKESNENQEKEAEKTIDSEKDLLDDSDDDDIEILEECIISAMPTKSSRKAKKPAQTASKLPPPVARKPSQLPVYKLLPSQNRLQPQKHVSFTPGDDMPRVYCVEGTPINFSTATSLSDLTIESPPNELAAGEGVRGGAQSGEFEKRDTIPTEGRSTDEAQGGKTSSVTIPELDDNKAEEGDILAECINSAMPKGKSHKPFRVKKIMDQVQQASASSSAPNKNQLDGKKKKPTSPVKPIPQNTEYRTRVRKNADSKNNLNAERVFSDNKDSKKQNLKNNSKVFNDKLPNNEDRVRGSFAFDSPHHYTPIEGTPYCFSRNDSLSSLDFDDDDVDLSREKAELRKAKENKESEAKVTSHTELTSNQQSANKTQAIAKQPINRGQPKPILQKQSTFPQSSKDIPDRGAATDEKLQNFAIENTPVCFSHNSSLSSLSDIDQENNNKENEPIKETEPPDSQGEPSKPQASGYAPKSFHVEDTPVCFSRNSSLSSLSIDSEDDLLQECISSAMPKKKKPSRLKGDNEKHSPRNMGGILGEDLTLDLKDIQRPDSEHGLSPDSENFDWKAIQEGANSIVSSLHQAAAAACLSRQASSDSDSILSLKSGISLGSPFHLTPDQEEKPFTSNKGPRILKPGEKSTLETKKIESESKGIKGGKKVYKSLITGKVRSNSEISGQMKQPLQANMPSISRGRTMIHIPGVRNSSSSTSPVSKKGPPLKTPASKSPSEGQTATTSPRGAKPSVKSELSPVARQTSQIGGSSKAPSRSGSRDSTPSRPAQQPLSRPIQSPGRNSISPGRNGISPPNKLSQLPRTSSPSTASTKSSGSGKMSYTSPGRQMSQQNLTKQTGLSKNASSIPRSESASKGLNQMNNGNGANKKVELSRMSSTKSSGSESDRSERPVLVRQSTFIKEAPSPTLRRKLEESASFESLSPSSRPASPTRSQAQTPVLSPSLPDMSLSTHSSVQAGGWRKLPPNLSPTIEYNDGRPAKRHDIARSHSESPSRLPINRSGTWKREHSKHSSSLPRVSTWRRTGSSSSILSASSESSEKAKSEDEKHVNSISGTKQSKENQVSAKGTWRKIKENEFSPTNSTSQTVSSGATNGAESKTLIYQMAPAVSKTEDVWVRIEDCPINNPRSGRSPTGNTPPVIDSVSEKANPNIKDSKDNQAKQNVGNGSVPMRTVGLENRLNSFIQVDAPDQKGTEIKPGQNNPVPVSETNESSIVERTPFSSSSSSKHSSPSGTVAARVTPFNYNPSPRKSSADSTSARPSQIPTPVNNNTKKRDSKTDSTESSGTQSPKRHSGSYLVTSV
UniProt O15169: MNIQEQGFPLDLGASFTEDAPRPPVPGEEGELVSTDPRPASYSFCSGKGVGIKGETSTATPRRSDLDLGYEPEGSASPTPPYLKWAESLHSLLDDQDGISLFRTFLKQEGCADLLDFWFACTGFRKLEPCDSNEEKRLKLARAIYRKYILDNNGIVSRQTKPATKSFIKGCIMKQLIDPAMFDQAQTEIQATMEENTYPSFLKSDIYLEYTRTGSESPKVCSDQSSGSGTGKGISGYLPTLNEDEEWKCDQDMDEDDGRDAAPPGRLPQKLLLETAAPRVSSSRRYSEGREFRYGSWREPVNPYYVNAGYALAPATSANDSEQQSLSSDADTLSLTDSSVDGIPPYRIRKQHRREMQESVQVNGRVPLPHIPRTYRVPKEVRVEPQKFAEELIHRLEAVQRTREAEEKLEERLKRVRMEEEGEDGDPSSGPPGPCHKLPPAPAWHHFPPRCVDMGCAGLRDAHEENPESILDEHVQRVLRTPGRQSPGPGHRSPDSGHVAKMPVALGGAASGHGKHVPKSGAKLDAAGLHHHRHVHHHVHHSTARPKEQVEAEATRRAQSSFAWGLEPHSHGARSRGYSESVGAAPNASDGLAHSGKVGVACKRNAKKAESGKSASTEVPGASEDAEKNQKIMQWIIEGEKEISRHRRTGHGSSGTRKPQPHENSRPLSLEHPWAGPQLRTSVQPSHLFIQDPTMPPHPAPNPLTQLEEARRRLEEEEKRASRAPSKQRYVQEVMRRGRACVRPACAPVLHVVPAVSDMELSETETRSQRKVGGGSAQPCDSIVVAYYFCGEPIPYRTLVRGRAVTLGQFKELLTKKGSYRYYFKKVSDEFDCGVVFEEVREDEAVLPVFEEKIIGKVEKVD
UniProt P35222: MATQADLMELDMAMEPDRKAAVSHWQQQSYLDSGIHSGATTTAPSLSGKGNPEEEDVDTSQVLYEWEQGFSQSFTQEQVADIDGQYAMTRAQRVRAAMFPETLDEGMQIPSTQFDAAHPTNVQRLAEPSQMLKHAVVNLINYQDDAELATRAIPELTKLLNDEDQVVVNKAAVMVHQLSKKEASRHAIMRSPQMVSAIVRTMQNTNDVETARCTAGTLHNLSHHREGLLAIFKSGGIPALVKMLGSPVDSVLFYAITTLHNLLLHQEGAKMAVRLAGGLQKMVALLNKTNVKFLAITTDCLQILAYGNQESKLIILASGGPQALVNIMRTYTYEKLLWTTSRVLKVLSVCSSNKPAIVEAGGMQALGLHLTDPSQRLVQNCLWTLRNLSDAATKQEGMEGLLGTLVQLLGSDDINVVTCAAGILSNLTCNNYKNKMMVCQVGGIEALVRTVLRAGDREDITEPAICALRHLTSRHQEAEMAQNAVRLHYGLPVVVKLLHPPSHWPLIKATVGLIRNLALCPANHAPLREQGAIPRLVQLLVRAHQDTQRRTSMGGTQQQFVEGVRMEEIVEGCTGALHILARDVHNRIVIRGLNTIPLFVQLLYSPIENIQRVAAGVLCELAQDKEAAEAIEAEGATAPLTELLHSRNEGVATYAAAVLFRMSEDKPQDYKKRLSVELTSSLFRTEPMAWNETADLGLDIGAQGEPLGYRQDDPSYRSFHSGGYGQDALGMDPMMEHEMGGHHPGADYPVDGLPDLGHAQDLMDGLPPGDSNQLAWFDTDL
UniProt Q5T5U3: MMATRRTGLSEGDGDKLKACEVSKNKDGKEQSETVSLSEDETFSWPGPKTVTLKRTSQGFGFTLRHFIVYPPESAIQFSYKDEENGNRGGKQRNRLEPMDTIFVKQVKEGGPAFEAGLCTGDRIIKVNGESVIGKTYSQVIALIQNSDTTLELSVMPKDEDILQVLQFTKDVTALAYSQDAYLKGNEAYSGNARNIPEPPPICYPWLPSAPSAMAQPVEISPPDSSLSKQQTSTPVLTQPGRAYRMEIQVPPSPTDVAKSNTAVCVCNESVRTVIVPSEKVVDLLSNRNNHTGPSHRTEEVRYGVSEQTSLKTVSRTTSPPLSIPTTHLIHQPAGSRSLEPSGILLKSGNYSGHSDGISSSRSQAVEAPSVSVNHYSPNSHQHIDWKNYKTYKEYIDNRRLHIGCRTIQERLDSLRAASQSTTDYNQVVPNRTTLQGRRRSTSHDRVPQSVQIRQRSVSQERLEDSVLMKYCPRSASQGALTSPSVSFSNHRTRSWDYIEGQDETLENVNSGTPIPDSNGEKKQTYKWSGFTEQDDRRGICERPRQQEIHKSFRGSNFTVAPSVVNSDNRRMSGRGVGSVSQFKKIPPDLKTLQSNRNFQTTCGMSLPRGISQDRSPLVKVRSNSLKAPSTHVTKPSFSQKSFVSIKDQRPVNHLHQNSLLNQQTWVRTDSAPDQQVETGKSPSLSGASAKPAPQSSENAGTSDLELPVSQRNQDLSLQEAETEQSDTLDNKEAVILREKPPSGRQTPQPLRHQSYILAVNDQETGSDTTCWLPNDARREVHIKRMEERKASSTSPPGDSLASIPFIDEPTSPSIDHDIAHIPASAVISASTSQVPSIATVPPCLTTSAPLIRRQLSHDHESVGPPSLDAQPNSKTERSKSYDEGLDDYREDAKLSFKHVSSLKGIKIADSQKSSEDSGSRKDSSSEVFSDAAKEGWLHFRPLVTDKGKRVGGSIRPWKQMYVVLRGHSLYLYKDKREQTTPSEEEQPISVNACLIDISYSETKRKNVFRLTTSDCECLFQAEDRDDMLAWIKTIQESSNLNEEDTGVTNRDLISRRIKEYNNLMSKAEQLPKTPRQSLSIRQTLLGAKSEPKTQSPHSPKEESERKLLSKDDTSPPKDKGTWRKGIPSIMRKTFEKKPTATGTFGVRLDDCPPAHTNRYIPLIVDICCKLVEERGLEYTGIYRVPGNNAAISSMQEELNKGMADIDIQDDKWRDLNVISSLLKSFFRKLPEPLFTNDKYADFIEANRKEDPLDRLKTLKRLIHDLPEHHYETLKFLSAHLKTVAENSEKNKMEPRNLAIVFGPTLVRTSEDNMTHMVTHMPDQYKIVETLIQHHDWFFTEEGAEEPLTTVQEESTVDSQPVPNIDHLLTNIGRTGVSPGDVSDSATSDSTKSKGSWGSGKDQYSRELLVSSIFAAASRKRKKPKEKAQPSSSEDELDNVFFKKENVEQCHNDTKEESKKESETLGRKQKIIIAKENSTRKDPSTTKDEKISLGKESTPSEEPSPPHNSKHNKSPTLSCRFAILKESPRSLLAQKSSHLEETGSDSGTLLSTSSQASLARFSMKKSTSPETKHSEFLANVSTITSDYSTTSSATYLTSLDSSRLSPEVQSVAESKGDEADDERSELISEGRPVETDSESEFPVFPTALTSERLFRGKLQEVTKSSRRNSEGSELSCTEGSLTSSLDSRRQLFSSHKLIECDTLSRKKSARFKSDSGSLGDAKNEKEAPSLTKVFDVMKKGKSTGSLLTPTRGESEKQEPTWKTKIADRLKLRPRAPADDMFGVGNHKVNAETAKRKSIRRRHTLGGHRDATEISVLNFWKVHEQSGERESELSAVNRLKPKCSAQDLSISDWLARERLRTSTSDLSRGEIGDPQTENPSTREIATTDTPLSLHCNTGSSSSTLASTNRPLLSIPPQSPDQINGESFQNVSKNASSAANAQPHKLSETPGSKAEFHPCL

In doi:10.1101/2024.03.20.585881 one finds binding data, which are given here for 4 substances.

The target of test [1] is 3xFLAG-mScarlet-APC (human (endogenous in HEK293)) (UniProt P25054). Description: RNA immunoprecipitation with sequencing.
The target in test [2] is 3xFLAG-eGFP-Axin1 (UniProt O15169). Nature of the test: RNA immunoprecipitation with sequencing.

Turning to ZDBF2 (from UniProt Q9HCK1 1-2354), the binding entry in test [1] is given as “binds”.
For “Axin1 (endogenous) (from UniProt O15169 1-862)”, the binding result in test [1] is listed as “binds”.
As for β-catenin (from UniProt P35222 1-781), in test [2], the binding result is given as “binds”.
Take ARHGAP21 (from UniProt Q5T5U3 1-1958): the binding entry in test [2] was “binds”.
